According to PMC3022668:
These are yes or no findings as the source states them, for the method shown.

By UniProt entry, the sequences of proteins in these tests, tags left out.
UniProt Q90988: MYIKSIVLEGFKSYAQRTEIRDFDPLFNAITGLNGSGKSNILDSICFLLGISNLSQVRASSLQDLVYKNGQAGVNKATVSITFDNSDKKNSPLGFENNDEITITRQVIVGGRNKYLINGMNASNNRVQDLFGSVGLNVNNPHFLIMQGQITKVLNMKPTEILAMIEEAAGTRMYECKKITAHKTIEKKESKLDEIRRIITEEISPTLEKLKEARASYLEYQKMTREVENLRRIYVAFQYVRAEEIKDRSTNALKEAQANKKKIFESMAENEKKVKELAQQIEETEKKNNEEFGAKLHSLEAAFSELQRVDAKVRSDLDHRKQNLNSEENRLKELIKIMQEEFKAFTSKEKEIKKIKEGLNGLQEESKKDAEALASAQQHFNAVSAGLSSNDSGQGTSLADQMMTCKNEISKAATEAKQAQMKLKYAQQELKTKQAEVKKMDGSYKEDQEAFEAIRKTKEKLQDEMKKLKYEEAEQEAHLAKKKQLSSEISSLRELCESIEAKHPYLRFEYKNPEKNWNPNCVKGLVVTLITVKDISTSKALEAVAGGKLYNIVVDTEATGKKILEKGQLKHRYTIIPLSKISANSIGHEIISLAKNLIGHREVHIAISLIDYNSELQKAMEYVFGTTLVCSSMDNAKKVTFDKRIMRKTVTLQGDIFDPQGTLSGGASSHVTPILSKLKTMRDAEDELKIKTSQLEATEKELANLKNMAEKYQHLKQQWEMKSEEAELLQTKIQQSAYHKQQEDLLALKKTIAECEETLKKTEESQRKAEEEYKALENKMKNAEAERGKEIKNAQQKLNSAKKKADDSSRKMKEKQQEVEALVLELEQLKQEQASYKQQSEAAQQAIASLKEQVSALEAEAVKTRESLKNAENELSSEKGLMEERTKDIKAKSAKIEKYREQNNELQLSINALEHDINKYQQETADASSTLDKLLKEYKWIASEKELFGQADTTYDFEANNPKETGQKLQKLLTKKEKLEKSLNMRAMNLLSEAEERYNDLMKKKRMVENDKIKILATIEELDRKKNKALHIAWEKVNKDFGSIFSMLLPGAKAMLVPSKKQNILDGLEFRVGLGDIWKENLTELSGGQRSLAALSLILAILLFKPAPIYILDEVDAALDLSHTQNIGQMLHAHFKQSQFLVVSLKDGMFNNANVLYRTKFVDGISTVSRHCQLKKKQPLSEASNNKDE

Molecular target: untagged wild-type SMC2 (chicken (endogenous in DT40)) (UniProt Q90988)
Test: far-Western, overlay or dot blot; affinity blotting: crude lysate (input) and eluent run on 4-12% BisTris gels, blots probed with HRP- or AP-conjugated streptavidin for 1 h in 1% BSA/PBT; only the binder purified

streptavidin (from UniProt P22629 25-183)
binding: no binding
